At least one compound was matched to its structure with a doubt left.
Tested on: HDM-induced atopic dermatitis mice
Assay: HDM (Df cream) atopic dermatitis mouse model, skin-specific memory T cell study
Type: in vivo, Nc/Nga mice
Settings: topical, three times a week for three weeks; compound vs 0.1% dexamethasone positive control
Text: Nc/Nga mice (purchased from Central Laboratory Animal, male, 6 weeks old) were used, with 2 mice per group. The experimental animals were allowed to freely access to food and water. Mice were shaved using clippers and depilatory cream before the application of Df cream. Df cream (dermatophagoides farina cream) (Biostir AD, Biostir Incorporation) was applied to the dorsal area of the mice 3 times a week for 4 weeks to induce atopic dermatitis. After confirming lesions induced in all mice, compound 27 of the present invention was applied topically to the skin three times a week for three weeks starting four weeks after the Df cream treatment. In contrast to other examples, this example excluded the simultaneous application of the test drug (compound 27 of the present invention) and the atopic dermatitis-inducing agent during the induction period. The compound of the present invention (8 g/mL and […]) was applied to the skin in a volume of 100 μL. As a positive control, 0.1% dexamethasone was topically applied to the mouse skin for comparison. […]
Skin tissue changes were examined using Hematoxylin and Eosin (H&E) staining (refer to FIG. 14) (Data are shown as mean±standard deviation (SD). ** P<0.01, * P<0.05). Additionally, changes in eosinophils and mouse epidermal thickness were measured (see FIG. 14). […]

C[C@@H]1C[C@H]2[C@@H]3CCC4=CC(=O)C=C[C@]4(C)[C@@]3(F)[C@@H](O)C[C@]2(C)[C@@]1(O)C(=O)CO [dexamethasone, Dexamethasone, reference compound]
erythema, hemorrhage, dryness, wounds, swelling and shedding (visual, SCORAD): Erythema and hemorrhage were observed
